This note sets out measurements from ChEMBL document CHEMBL1155126, “2-N-Methyl modifications and SAR studies of manzamine A” (Bioorg Med Chem, 2008).

As usually defined, the MIC is the lowest concentration that inhibits growth of the organism. A lower MIC goes with a more susceptible organism.

Converted amounts (≈) assume the structure as drawn.

For this assay, the system named is Candida albicans. The assay can be described thus: Antimicrobial activity against Candida albicans ATCC 90028. The class given is functional, organism-based. A digest of the protocol:
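Modified CLSI broth microdilution; M. intracellulare by a modified Franzblau method. Samples were serially diluted in 20% DMSO/saline and tested in duplicate. Inocula were set by OD630 in broth. Growth was read before and after incubation at 630 nm, or by fluorescence 544ex/590em for A. fumigatus and M. intracellulare. MIC is the lowest concentration with no detectable growth; MFC/MBC is the lowest concentration giving no growth after 5 µL is subcultured to agar.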

As to `C[C@@H]1[C@H](O)[C@@H](C)/C=C/C=C/C=C/C=C/C=C/C=C/C=C/[C@H](O[C@@H]2O[C@H](C)[C@@H](O)[C@H](N)[C@@H]2O)C[C@@H]2O[C@](O)(C[C@@H](O)C[C@@H](O)[C@H](O)CC[C@@H](O)C[C@@H](O)CC(=O)O[C@H]1C)C[C@H](O)[C@H]2C(=O)O` [AMPHOTERICIN B], the MIC was determined as 0.68 µM (≈ 0.628 µg/mL).
